In EP0312157A2 (Merck & Co., Inc., priority 1987, dated 1989):
Strings that start with PEPTIDE1 are HELM notation: dots part the residues, brackets hold end groups and non-standard residues.

Assay: general procedure: solution-phase peptide synthesis; acyl azide (isoamylnitrite/HCl); DCC/HOBT; BOP; N-hydroxysuccinimide ester
Conditions: hydrochloride or acetate

Substance	step yield (coupling step) [%]	step yield (late stage modification step) [%]	also measured
Boc-Phe-His-ACHPA-Lys(Cbz)-NHCH2(pyridin-4-yl)	82	–	final HPLC purity (coupling step, C18-Zorbax HPLC): > 99%
Boc-Phe-His-ACHPA-Lys-N(CH3)CH2(pyridin-4-yl) acetate	–	–	final HPLC purity (late stage modification step, C18 Dynamax HPLC): 98.9%
Boc-Tyr(OMe)-His(DNP)-ACHPA-Lys(Cbz)-NHCH2-(pyridin-4-yl)	87	–	–
PEPTIDE1{[BocNHCH2CH2OCO].F.H.[ACHPA].K.[NHCH2(piperidin-4-yl)]}$$$$V2.0	–	78	–
PEPTIDE1{[Boc].[YOMe].H.[ACHPA].K.[PyM]}$$$$V2.0	–	65	final HPLC purity (late stage modification step, Dynamax Scout-C18 HPLC): 98.5%
PEPTIDE1{[iPrSO2].F.H.[ACHPA].K.[NHCH2(piperidin-4-yl)]}$$$$V2.0	–	86	–
